In the supplement of paper PMC12024529:
Counter-ions that a name gives are not always drawn. Some of the results follow. Baselines shift from plate to plate; read single values as rough.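 HEK293 lines stably express B-domain-deleted factor VIII fused to Gaussia luciferase, wild type or a misfolding-prone missense mutant. Scores equal triplicate-well mean luminescence minus DMSO mean, divided by DMSO standard deviation; scores of 2 or higher are hits. Low scores may indicate reduced secretion or worse cell viability.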

What was measured:
HEK293 WT BDD-FVIII-Gluc = test: secreted FVIII-Gluc luciferase Z-score vs DMSO control; higher = more FVIII-Gluc secretion; settings: 5 µM; 24 h
[1] = system: HEK293 p.N1941S BDD-FVIII-Gluc; test: as above; settings: 5 µM; 24 h

Row | Compound | secreted FVIII-Gluc luciferase Z-score (HEK293 WT BDD-FVIII-Gluc) | secreted FVIII-Gluc luciferase Z-score [1]
1 | CCN1CCN(C(=O)N[C@@H](C(=O)N[C@@H]2C(=O)N3[C@@H]2SC(C)(C)[C@@H]3C(=O)O)c2ccccc2)C(=O)C1=O [Piperacillin Sodium] | inactive: -0.785 | inactive: -0.107
2 | COc1cc(Cc2cnc(N)nc2N)cc(OC)c1OC [Trimethoprim] | inactive: 1.45 | inactive: 0.604
3 | C#C[C@]1(OC(C)=O)CC[C@H]2[C@@H]3CCC4=C[C@@H](OC(C)=O)CC[C@@H]4[C@H]3CC[C@@]21C [Ethynodiol diacetate] | inactive: -1.68 | inactive: -2.3
4 | CCN(CC)C(=O)C1(c2ccccc2)CC1CN (stereo unspecified) [Milnacipran HCl] | inactive: 0.312 | inactive: 0.0848
5 | COCCOC(=O)C1=C(C)NC(C)=C(C(=O)OC/C=C/c2ccccc2)C1c1cccc([N+](=O)[O-])c1 (stereo unspecified) [Cilnidipine] | inactive: -6.42 | inactive: -1.31
6 | C=C1/C(=C\C=C2/CCC[C@]3(C)[C@@H]([C@H](C)CCCC(C)(C)O)CC[C@@H]23)C[C@@H](O)C[C@@H]1O [Calcitriol (Rocaltrol)] | inactive: -3.52 | inactive: 0.39
7 | O=C([O-])C(O)[C@H](O)[C@@H](O)[C@H](O)[C@H](O)CO.O=C([O-])C(O)[C@H](O)[C@@H](O)[C@H](O)[C@H](O)CO.[Ca+2] (stereo partly specified) [Calcium Gluceptate] | inactive: 0.184 | inactive: 1.18
8 | CC1(C)[C@@H](O[C@H]2O[C@H](C(=O)O)[C@@H](O)[C@H](O)[C@H]2O[C@@H]2O[C@H](C(=O)O)[C@@H](O)[C@H](O)[C@H]2O)CC[C@]2(C)[C@H]3C(=O)C=C4[C@@H]5C[C@@](C)(C(=O)O)CC[C@]5(C)CC[C@@]4(C)[C@]3(C)CC[C@@H]12 [Ammonium Glycyrrhizinate] | inactive: 0.924 | inactive: -0.807
